Patent US20020164716A1
These are yes or no findings as the source states them, for the method shown. Binding seen in cells or lysates may run through a third protein. Some entries that bind do so weakly or less than the wild type.

Chains of the proteins cited; added tags and fusions are not shown. Residues count along the entry.
UniProt P19438, residues 355-442: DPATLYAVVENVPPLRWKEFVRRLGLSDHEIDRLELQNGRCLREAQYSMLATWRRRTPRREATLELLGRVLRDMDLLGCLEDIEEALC

Molecular target: TNF-R1-DD expressed as a GST fusion protein (UniProt P19438)
Assay: pull-down on glutathione beads, Western blot with anti-MBP antibody

MBP fusion protein containing 27TU (from UniProt Q8WXG6 1002-1647)
binding: binds
